In US20070248589A1 (GOVERNMENT OF THE UNITED STATES OF AMERICA AS REPRESENTED …, published 2007):
At least one compound was matched to its structure with a doubt left.

How the values were obtained:
[1] = test system: Hb12 cells; test: Bcl-2 expression assay, SPATIAL-EGFP transfected Bcl-2 expressing thymocyte cell line; format: cell-based, mouse; details: 1 μM, SPATIAL-EGFP-transfected culture
Experimental: (§1) The mouse thymocyte cell line Wehi 7.2 and its variant Wbcl-2, which over expresses bcl-2, were maintained in DMEM supplemented with 10% heat-inactivated FBS, 2 mM glutamine, 100 U/ml penicillin, and 0.1 mg/ml streptomycin. Cells were grown at 37° C. in a humidified atmosphere with 5% CO2.
(§2) Transient transfections were performed using either lipids (Lipofectamine 2000 or FreeStyle 293 Expression System, each supplied by Invitrogen, Rockville, Md.) or calcium phosphate (Mammalian Transfection Kit; Stratagene, La Jolla, Calif.) or electroporation. Manufacturer instructions were followed for lipid and calcium phosphate transfections. For electroporation, the following procedure was used: Before transfection, Wehi cell and Wbcl-2 cells were counted and suspended in fresh complete DMEM without antibiotics at 5×10^5 cells/ml in a 15 cm dish. On the day of transfection, the cells were washed with PBS twice and were suspended in serum free DMEM at 6.25×10^6 cells/mL Aliquots of 800 μl cell suspension were transferred to a 4 mm electroporation cuvette and 10 μg of plasmid DNA solution was added. After 10 minutes incubation on ice, the cells were electroporated under the condition of 310 V, 725 ohms resistance, and 1050 μF capacitance. The transfected cells were incubated on ice for 10 minutes and suspended in complete DMEM in 10 cm dishes at the density of 7.5×10^4 viable cells/ml. […]

[2] = test system: Wehi7.2 cells; test: Bcl-2 expression assay, SPATIAL-EGFP transfected thymocyte cell line; format: cell-based, mouse; details: 1 μM, SPATIAL-EGFP-transfected culture
Experimental: as §1, §2

SMILES: C[C@@H]1C[C@H]2[C@@H]3CCC4=CC(=O)C=C[C@]4(C)[C@@]3(F)[C@@H](O)C[C@]2(C)[C@@]1(O)C(=O)CO [Dexamethasone, reference compound]
- induction of apoptosis [1]: not in transfected Hb12 cells
- induction of apoptosis [2]: induced apoptosis
